Test results as given in the supplement of paper PMC10849652.
The other results are listed elsewhere or left out.

Sequences of proteins named here, by UniProt entry; tags and fusion partners are left off. A change or cut given only in a name is not applied to a line headed by its entry.
UniProt Q8N0Y2: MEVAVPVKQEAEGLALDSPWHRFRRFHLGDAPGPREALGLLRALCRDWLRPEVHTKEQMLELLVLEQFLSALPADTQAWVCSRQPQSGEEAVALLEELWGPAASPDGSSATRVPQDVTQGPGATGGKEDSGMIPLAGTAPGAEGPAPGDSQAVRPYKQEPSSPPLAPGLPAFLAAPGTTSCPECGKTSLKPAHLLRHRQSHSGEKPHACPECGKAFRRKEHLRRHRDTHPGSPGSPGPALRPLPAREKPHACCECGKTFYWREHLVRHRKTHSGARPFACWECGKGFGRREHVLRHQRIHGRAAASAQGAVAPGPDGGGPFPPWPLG
UniProt Q6N043: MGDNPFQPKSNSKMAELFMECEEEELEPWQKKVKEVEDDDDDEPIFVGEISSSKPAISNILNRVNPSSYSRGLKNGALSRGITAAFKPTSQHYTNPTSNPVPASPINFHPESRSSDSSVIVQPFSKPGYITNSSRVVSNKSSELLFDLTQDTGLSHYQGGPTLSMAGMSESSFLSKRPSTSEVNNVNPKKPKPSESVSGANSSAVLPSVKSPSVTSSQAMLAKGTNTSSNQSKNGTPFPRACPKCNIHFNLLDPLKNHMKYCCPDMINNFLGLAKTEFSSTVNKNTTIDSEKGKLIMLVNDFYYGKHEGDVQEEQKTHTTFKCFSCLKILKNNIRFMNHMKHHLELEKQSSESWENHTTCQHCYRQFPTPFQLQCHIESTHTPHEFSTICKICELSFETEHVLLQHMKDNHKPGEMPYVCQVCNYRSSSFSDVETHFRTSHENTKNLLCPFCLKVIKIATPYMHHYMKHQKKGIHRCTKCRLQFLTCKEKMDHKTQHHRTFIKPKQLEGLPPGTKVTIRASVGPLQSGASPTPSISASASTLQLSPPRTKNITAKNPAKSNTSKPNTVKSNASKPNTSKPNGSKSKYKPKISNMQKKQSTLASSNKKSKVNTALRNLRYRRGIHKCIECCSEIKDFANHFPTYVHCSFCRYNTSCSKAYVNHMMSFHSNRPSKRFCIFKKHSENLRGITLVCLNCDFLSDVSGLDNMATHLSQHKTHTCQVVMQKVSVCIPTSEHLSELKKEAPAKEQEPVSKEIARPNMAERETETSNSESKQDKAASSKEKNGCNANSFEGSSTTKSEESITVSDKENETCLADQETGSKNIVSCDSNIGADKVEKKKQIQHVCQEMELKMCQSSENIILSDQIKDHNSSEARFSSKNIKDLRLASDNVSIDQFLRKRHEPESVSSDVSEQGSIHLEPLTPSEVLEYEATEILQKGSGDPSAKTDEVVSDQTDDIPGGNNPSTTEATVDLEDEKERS
UniProt Q8TAU3: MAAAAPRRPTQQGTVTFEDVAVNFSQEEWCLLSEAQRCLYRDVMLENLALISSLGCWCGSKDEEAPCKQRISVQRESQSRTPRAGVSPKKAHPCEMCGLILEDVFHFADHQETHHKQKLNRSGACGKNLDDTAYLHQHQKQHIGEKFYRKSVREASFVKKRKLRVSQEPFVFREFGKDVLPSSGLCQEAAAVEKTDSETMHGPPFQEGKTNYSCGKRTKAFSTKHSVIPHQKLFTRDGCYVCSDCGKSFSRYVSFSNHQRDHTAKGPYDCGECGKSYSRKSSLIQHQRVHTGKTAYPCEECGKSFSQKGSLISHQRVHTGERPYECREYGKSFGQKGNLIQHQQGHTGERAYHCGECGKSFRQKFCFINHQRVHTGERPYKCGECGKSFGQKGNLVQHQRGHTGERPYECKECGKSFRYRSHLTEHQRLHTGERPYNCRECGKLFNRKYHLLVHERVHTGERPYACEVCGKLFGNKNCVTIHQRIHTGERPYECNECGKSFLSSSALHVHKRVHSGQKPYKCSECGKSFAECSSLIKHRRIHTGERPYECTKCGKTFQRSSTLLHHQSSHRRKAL
UniProt Q8TF68: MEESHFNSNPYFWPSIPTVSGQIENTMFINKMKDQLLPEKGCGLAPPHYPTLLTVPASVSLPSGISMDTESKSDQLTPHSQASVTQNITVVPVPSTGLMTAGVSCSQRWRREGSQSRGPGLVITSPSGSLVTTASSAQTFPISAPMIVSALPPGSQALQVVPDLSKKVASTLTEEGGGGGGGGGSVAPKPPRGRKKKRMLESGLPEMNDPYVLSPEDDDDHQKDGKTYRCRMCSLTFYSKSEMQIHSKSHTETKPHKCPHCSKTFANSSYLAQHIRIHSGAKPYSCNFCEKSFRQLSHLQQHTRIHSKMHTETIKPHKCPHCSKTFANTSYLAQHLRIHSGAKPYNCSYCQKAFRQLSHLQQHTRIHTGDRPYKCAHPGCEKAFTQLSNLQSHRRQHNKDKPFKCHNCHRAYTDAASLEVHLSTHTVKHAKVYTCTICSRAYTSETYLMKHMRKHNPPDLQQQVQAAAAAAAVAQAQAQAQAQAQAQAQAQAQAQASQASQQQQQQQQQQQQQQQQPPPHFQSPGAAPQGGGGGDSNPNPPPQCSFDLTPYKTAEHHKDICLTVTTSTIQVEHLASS
UniProt O15015: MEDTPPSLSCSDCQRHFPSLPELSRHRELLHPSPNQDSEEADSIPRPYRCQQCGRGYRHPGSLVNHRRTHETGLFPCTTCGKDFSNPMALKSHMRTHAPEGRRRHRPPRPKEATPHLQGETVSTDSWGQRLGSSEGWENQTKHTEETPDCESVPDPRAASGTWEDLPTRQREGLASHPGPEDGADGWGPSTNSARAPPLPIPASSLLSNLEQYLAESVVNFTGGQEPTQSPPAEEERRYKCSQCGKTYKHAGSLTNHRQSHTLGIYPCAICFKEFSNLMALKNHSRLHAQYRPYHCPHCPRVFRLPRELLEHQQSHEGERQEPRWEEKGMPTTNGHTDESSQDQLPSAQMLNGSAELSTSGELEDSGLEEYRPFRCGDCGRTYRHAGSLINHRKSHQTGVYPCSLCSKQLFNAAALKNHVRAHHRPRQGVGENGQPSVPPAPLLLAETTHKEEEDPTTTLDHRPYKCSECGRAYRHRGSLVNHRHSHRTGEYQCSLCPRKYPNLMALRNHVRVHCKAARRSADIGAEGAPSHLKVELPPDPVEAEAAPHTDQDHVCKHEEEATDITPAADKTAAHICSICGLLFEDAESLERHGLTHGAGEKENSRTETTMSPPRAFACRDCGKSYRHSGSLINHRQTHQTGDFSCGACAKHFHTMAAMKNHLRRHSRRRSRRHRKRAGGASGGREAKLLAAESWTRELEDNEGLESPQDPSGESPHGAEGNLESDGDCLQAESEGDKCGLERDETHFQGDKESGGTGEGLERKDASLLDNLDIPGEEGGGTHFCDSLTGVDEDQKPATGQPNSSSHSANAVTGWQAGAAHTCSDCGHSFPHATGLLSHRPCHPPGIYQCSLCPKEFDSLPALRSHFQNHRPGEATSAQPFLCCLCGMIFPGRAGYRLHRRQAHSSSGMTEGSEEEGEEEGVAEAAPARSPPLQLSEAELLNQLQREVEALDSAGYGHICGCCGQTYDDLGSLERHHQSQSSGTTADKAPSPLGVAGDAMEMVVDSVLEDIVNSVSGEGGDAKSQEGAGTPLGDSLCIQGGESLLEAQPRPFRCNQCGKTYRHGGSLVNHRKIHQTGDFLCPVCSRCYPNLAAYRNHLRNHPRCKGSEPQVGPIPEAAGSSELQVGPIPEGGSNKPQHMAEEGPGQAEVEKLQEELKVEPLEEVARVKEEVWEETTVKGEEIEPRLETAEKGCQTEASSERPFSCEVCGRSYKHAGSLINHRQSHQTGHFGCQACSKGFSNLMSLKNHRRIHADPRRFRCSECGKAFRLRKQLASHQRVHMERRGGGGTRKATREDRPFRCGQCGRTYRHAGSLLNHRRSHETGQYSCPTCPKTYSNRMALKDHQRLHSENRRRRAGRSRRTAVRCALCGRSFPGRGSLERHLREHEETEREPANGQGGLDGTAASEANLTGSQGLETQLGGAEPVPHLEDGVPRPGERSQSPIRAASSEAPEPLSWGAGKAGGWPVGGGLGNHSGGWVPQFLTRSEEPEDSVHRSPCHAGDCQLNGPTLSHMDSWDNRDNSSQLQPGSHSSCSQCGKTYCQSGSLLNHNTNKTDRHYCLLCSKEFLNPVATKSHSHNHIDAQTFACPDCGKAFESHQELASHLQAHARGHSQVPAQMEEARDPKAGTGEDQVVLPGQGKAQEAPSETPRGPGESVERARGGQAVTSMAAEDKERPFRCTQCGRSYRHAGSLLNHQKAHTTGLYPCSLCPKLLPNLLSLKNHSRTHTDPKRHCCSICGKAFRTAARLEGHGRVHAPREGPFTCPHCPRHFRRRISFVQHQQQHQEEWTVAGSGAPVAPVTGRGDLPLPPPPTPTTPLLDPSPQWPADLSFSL
UniProt Q8N720: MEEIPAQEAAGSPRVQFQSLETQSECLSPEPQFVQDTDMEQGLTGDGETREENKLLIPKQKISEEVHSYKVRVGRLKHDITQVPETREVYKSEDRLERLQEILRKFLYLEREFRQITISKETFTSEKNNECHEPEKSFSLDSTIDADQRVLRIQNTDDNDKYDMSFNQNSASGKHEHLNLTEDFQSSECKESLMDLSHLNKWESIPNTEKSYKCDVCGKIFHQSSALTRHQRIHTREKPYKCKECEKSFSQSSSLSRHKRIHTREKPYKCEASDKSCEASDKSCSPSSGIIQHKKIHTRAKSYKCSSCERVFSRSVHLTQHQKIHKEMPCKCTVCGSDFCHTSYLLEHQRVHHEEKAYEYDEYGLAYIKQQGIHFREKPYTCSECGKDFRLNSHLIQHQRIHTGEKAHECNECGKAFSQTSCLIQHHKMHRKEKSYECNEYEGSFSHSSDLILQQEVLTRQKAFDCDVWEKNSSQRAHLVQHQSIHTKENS
UniProt Q9Y5A6: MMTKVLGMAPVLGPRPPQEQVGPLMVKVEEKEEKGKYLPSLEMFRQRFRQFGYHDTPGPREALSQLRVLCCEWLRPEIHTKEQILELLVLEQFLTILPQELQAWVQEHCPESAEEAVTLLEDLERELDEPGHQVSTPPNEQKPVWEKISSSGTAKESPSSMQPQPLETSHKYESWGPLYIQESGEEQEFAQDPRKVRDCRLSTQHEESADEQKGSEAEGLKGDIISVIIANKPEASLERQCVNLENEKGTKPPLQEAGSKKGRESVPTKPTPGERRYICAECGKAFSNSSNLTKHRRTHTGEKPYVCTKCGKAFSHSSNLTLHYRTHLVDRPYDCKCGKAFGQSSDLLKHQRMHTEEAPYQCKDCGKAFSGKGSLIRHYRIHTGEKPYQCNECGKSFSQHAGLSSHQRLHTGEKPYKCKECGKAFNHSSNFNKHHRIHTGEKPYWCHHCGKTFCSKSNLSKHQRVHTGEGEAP
UniProt Q8IYB9: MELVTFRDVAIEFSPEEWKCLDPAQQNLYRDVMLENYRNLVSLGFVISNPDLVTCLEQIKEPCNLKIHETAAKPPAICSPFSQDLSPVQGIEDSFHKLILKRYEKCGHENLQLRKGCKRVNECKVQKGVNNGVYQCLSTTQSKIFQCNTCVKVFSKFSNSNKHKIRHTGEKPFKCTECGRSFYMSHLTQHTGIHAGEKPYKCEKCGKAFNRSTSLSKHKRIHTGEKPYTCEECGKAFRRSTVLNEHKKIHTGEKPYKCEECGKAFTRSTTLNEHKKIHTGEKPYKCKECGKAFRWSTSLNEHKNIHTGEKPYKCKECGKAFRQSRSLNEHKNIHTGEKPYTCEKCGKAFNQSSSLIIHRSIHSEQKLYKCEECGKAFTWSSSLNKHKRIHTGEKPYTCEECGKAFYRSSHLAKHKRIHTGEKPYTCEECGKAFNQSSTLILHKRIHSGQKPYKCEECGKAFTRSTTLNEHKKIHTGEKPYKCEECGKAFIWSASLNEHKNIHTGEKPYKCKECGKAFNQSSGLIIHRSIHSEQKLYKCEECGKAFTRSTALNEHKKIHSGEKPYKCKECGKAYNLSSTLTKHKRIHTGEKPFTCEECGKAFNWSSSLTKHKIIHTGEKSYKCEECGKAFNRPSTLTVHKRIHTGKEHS
UniProt Q8IYN0: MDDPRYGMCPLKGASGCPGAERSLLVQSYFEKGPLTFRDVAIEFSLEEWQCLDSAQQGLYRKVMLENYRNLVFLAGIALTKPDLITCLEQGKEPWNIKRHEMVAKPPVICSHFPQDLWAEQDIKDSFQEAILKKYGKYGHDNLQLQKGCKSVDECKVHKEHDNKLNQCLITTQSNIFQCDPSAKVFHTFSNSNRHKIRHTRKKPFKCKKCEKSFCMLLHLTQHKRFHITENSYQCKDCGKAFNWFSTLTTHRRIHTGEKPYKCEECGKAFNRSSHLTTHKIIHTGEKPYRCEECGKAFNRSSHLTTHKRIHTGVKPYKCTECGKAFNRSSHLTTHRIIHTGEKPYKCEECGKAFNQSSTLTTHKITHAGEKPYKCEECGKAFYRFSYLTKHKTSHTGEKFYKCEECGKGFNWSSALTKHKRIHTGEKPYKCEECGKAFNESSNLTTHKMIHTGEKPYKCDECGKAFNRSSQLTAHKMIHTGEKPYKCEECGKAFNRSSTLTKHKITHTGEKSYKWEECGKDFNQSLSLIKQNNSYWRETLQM

How the values were obtained:
Test in all cases: log2 fold change, soluble protein after heating vs DMSO (PISA); higher = thermal stabilisation; K562 lysate, 10 uM; active = over 0.2 and 3.5 SD of the protein, either way, in both replicates (recomputed)
[1] = compound: C1=CC2=NC=CN=C2C=C1/C=C/3\C(=O)NC(=O)S3
Procedure, shortened: (§1)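 Quantification was by TMTpro 16plex LC-MS/MS with equalised channel sums, applied to the supernatant after 21,000xg for 90 min. Samples were crude K562 extract at 1 mg/mL protein in PBS pH 7.4 with 1 mM MgCl2, treated with 10 μM compound for 30 min, heated for 3 min across 48°C-58°C, pooled and brought to 0.5% NP-40 at 4°C. Values are log-two fold changes in thermal stability relative to solvent controls, from duplicates.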

[2] = compound: C1=CC=C(C=C1)C2=NC(=C(N2)C3=CC=NC=C3)C4=CC(=C(C=C4)Cl)O
Procedure, shortened: as §1

IRAK-1-4 Inhibitor I = compound: C1COCCN1CCN2C3=CC=CC=C3N=C2NC(=O)C4=CC(=CC=C4)[N+](=O)[O-] [IRAK-1-4 Inhibitor I]
Procedure, shortened: as §1

[3] = compound: C1CCN(C1)C(=O)NC2=CC=CC(=C2)NC3=NC=C(C(=N3)NCCC4=CN=CN4)Br
Procedure, shortened: as §1

[4] = compound: C1CN(CCC1(CC2=CC=C(C=C2)Cl)N)C3=NC=NC4=C3C=CN4
Procedure, shortened: as §1

[5] = compound: C/C(=N\NC(=O)C1=CC(=CC=C1)S(=O)(=O)N2CCOCC2)/C3=C(C=CC(=C3)Cl)O
Procedure, shortened: as §1

[6] = compound: C1=CC2=C(C=CC(=C2)/C=C\3/C(=O)NC(=NCC4=CC=CS4)S3)N=C1
Procedure, shortened: as §1

[7] = compound: C1=CC=C2C(=C1)C3=NNC4=CC=CC(=C43)C2=O
Procedure, shortened: as §1

erlotinib = compound: C#Cc1cccc(Nc2ncnc3cc(OCCOC)c(OCCOC)cc23)c1 [erlotinib]
Procedure, shortened: as §1

[8] = compound: C1=CC(=CC=C1C2=NC3=C(N2)C=C(C=C3)C(=O)N)OC4=CC=C(C=C4)Cl
Procedure, shortened: as §1

Measured: log2 fold change

ZNF444 (UniProt Q8N0Y2)
inactive: [1] 0.007 | [2] 0.014 | IRAK-1-4 Inhibitor I 0.033

ZNF391 (UniProt Q9UJN7)
inactive: [3] -0.063 | [4] 0.177

ZNF460 (UniProt Q14592)
inactive: [5] 0.143 | [6] 0.095 | [1] 0.075 | [7] 0.063 | [3] -0.006 | [4] 0.326

ZNF692 isoform 5 (UniProt Q9BU19)
inactive: [5] 0.136 | [6] 0.071 | [7] -0.079

ZGRF1 (UniProt Q86YA3)
inactive: [2] 0.069 | [3] 0.127 | [4] 0.061 | IRAK-1-4 Inhibitor I -0.116

ZHX3 (UniProt Q9H4I2)
inactive: [5] 0.258 | [6] 0.279 | [1] -0.002 | [2] 0.015 | [7] 0.201 | IRAK-1-4 Inhibitor I 0.029

ZNF280D (UniProt Q6N043)
inactive: [2] 0.031 | IRAK-1-4 Inhibitor I -0.139

ZNF417 (UniProt Q8TAU3)
inactive: [1] 0.104

ZNF384 (UniProt Q8TF68)
inactive: erlotinib -0.002 | [8] 0.017 | [2] 0.124 | [3] -0.168 | [4] 0.083 | IRAK-1-4 Inhibitor I 0.051

2 records drawn at random from the list so far:
ZGRF1 (UniProt Q86YA3)
inactive: [2] 0.069 | [3] 0.127 | [4] 0.061 | IRAK-1-4 Inhibitor I -0.116

ZNF417 (UniProt Q8TAU3)
inactive: [1] 0.104

Further entries follow:

ZNF410 isoform 5 (UniProt Q86VK4)
inactive: [3] 0.214 | [4] -0.395

ZNF646 (UniProt O15015)
inactive: [2] 0.068 | IRAK-1-4 Inhibitor I 0.076

ZNF655 isoform 2 (UniProt Q8N720)
inactive: [5] 0.034 | [6] -0.553 | [7] -0.141

ZNF77 (UniProt Q15935)
inactive: [5] -0.123 | [6] 0.066 | [7] -0.076 | [3] 0.354 | [4] -0.499

ZNF618 (UniProt B1ALC2)
inactive: [5] -0.036 | [6] 0.065 | [7] -0.09 | [3] -0.027 | [4] 0.052

ZSCAN21 (UniProt Q9Y5A6)
inactive: [3] -0.022 | [4] 0.037

ZNF595 (UniProt Q8IYB9)
inactive: [5] -0.06 | [6] -0.008 | [2] 0.011 | [7] 0.172 | [3] -0.019 | [4] -0.106 | IRAK-1-4 Inhibitor I -0.015

ZNF100 (UniProt Q8IYN0)
inactive: [1] 0.304
